At least one compound was matched to its structure with a doubt left. Some entries share one result that the patent states for a list of compounds.
Experiments:
Type in all cases: biochemical, human
[1] = system: RNAse activity in saliva samples; test: Nuclease assay (RNAseAlert) in saliva mixed 1:1 with formulation; conditions: for RNAse activity: pH 4.0, 4.5 and 4.7, absence of ATA and PAAc, saliva 1:1, about 1 hour room temperature, all donors
[2] = system: nucleases in saliva samples
[3] = system: RNAse activity in stool samples; test: Nuclease assay (RNAseAlert) in stool samples collected in formulation; conditions: ATA increased from 10 mM to 20 mM (Table 4 compositions), both donors

| SMILES | RNAse activity [1] | RNA stability on addition to guanidinium salts-based samples [2] | RIN of spiked ribosomal RNA ([2]; pH 4.6) | RIN of spiked RNA ([2]; pH 4.8) | ribosomal RNA doublet integrity ([2]; pH 4.8) | degradation of RNA in saliva samples obtained from nuclease-rich donors ([2]; pH 5.2) | effect on RNAse activity of addition to guanidinium salt-based compositions ([1]; ATA 5 mM final, PAAc at pH 4.7, CDTA when ATA was present, saliva 1:1) | change in RNAse activity [3] |
| --- | --- | --- | --- | --- | --- | --- | --- | --- |
| N#CS.N=C(N)N [GTC, guanidinium thiocyanate] | > 14,000 RFU | – | – | – | – | – | – | – |
| O=C(O)C1=CC(=C(c2ccc(O)c(C(=O)O)c2)c2ccc(O)c(C(=O)O)c2)C=CC1=O [ATA, aurintricarboxylic acid] | – | significant improvement in RNA stability | 7.6-8.4 | 7.7-8.0 | intact | out-performed all inhibitors/reducing agents tested in preventing degradation of RNA | dramatically reduced RNAse activity | reduction in RNAse activity |
| Cl.N=C(N)N [GuHCl, guanidinium hydrochloride] | > 14,000 RFU | – | – | – | – | – | – | – |

Source: US20240271184A1, “LOW PH COMPOSITION AND METHOD FOR S[…] ACIDS IN BIOLOGICAL SAMPLES” (priority 2021, published 2024)
